In US20170066836A1 (NATIONAL UNIVERSITY CORPORATION KOCHI UNIVERSITY, published 2017):
No constants are given. Whether binding was seen depends on the method and setting. Some entries that bind do so weakly or less than the wild type. For some of these results: Tags and fused reporters may be left off the sequences shown.

T1: mouse Glypican-1 expressed on 293 cells (mouse, UniProt Q9QZF2 24-529)
T1 construct: whole, on cells; also called mouse GPC-1; mouse GPC1
T1 sequence (looked up): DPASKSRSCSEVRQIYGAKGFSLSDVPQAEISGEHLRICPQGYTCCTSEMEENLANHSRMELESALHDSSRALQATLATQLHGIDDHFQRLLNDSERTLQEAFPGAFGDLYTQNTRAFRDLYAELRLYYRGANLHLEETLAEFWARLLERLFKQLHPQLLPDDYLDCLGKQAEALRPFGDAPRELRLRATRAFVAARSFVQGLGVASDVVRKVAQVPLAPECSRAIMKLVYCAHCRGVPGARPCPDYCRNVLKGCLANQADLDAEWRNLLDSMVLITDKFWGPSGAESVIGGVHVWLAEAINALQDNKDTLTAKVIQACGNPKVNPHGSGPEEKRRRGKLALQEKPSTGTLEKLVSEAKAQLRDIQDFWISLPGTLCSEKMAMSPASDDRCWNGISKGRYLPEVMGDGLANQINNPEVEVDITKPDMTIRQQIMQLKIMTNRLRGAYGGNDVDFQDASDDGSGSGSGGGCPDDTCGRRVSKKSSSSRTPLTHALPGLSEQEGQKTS

T2: human Glypican-1 expressed on 293 cells (pFLAG-CMV3 hGPC1) (human) (UniProt P35052)
T2 sequence: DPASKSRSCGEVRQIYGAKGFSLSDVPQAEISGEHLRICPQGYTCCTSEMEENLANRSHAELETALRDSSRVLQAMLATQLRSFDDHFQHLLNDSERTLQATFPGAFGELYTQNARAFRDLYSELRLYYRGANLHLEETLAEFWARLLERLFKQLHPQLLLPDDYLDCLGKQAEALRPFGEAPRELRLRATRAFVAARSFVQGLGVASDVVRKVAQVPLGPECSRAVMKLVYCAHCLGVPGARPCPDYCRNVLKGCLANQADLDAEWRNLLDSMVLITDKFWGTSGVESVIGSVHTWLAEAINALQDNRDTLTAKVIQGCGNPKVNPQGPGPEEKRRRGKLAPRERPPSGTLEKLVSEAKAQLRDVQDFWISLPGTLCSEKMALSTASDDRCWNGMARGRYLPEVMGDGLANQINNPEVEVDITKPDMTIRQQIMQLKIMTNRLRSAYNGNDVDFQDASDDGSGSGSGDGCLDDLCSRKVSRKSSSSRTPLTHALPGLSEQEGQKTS

T3: human Glypican-1 forcibly expressed on CT01 chicken T-lymphoblast-like cells (CT01-GPC-1#42) (human) (UniProt P35052)
T3 sequence: T2 sequence

B1: anti-GPC-1 antibody 2-60 (antibody, V domains shown)
VH: AVTLDESGGGLQTPGGALSLVCKASGFTYSSYAMGWVRQAPGKGLEFVASISSDGSDTAYGSAVKGRATISRDNRQSTLRLQLNNLRAEDTGTYYCAKSYRCSWNCWDYAAKIDAWGHGTEVTVS
VL: VALTQPASVSANPGETVKITCSGSGSYTGSYYYGWYQQKSPGSAPVTVIYNNNKRPSDIPSRFSGSTSGSTATLTITGVQAEDEAVYFCGSYDRSSDSGIFGAGTTLTV
notes: detection was with anti-mouse IgG and the control was mouse IgG2a; also called #17; clone 2-60
B2: anti-GPC-1 antibody 2-70 (antibody, V domains shown)
VH: AVTLDESGGGLQTPGGALSLVCKASGLSTFSDRGMHWVRQAPGKGLEFVAAISSSGRFTLYGAAVKGRATISRDNGQSTVRLQLNDLRAEDTAIYYCARGTTTGWWADAGEIDAWGHGTEVIVST
VL: ALTQPAFMSANPGETVKITCSGGSYSAYGWFQQKSPGSAPVTLIYNDNIRPSDISSRFSGSKSGSTATLTITGVQADDEAVYFCGNEDRNNTATFGAGTTLTV
notes: detection was with anti-mouse IgG and the control was mouse IgG2a; also called #19; clone 2-70
B3: anti-GPC-1 antibody 2-11 (antibody, V domains shown)
VH: AVTLDESGGGLHTPGGTLSLVCKASGFTFSSYDMIWVRQAPGKGLEYVAEIINTGRETYYGAAVKGRATISRDNRQSTLRLQLNNLRAEDTGTYFCAKAAPWNYAGSIDAWGHGTEVIVST
VL: ALTQPASVSANPGETVKITCSGDDSDYGWYQQKSPGSAPVTVIYSNDERPSDIPSRFSGSKSGSTATLTITGVQADDEAVYYCGSADTSSGTNIFGAGTTLTV
B4: anti-GPC-1 antibody 2-57 (antibody, V domains shown)
VH: AVTLDESGGGLQTPGGALSLVCKASGFDFSSFNMFWVRQAPGKGLEYVAQISSDGSFTAYGAAVKGRATISKDNGQSTVRLQLSNLRAEDTGTYYCTKSASGSVWTAAFSAGSIDAWGHGTEVIVST
VL: ALTQPASVSAKPGETVKITCSGGSIGYSYGWFQQKSPGSAPVTVIYNNNNRPWDIPSRFSGSKSGSTATLTITGVQVADEAVYYCGSADSAGYSGMFGAGTTLTV
B5: anti-GPC-1 antibody 1-66 (antibody, V domains shown)
VH: AVTLDESGGGLQTPGGALSLVCKASGFTFSSYAMGWVRQAPGKGLEFVAGIDRTGTYAGYGAAVKGRATISRDNGQSTVRLQLNNLRAEDTGTYYCAKESTSGCASGICTAAWIDAWGHGTEVIVST
VL: ALTQPSSVSANPGETVKITCSGGGSDYGYGWHQQKSPGSAPVTVIYSNNKRPTDIPSRFSGSTSGSTATLTITGVRAEDEAVYYCGSADSSTFHGIFGAGTTLTV
B6: anti-GPC-1 antibody 1-91 (antibody, V domains shown)
VH: AVTLDESGGGLQTPGRALSLVCKASGFTFSNYDMLWVRQAPGKGLEWVGVISSSGSSTNYGAAVKGRATISRDNGQNTVRLQLNNLRAEDTATYYCAKSAYGYYGSGVSDIDAWGLGTEVIVST
VL: ALTQPSSVSANPGETVKITCSGGSGNNYGWYQQKSPGSALVTVIYDNNKRPTDIPSRFSGSTSGSTGTLTITGVQAEDEAVYFCGGYDSSTYADIFGAGTTLTV
B7: anti-GPC-1 antibody 1-77 (antibody, V domains shown)
VH: AVTLDESGGGLQTPGGGLSLVCKGSGFTLTDRGMHWVRQAPGKGLEWVAAISSSGRFTLYAPAVTGRATISRDNGQSTVRLQLNNLRAEDTGTYYCARGNAGGWWADGGEIDAWGHGTEVIVST
VL: ALTQPSSVSANPGETVKITCSGGSGSYGWFQQKSPGSAPVTVIYSNNKRPSDIPSRFSGSKSGSTNTLTITGVQADDEAVYFCGSADSSYIGIFGAGTTLTV
B8: anti-GPC-1 antibody 2-14 (antibody, V domains shown)
VH: AVTLDESGGGLQTPGGALSLICKASGFSFSNYDILWVRQAPGKGLEFVAAVSSVSVPSYAPAVKGRATISRDNGQSTVRMQLNNLRAEDSATYYCARGGAGHYYSTATGNIDVWGHGTEVTVST
VL: ALTQPSSVSANPGETVKITCSGGYSGYGYGWYQQKSPGSAPVTVIYDNTNRPSNIPSRFSGSLSGSTNTLTITGVQADDEAVYYCGSTDGSTYIGIFGAGTTLTV
B9: anti-GPC-1 antibody 2-77 (antibody, V domains shown)
VH: AVTLDESGGGLQTPGGGLSLVCKASGFDFSNNGMGWVRQAPGKGLEWVAGISGSGTTAYGAAVKGRVTISRDNGQSTVRLQLNNLRAEDTGTYYCAKAAGSCGSDCYTTGFIDAWGHGTEVTVST
VL: ALTQPASVSANPGETVEITCSGGSGNYGWFQQKSPGSAPVTLIYWDDERPSNIPSRFSGSTSGSTATLTITGVQADDEAVYFCGSRDTNYVGMFGAGTTLTV
B10: anti-GPC-1 antibody 1-27 (antibody, V domains shown)
VH: B9 VH
VL: B9 VL

target: T1, mouse Glypican-1 expressed on 293 cells; test: FACS on 293 cells forcibly expressing mouse GPC1
Procedure: A mouse Glypican-1 expression vector or an empty vector was transfected to the 293 cell using lipofectamine 2000 and the reactivity with various clones of an anti-Glypican-1 antibody was analyzed by FACS.

binding	Binder
binds	B1
binds	B2

target: T2, human Glypican-1 expressed on 293 cells (pFLAG-CMV3 hGPC1) (human); test: FACS on 293 cells transfected with pFLAG-CMV3 hGPC1

binding	Binder
binds	B1

target: T3, human Glypican-1 forcibly expressed on CT01 chicken T-lymphoblast-like cells (CT01-GPC-1#42) (human); test: FACS on CT01 cells forcibly expressing human Glypican-1 against CT01 cells

binding	Binder
binds	B3
binds	B4
binds	B1
binds	B5
binds	B6
binds	B7
binds	B8
binds	B9
binds	B10

target: T1, mouse Glypican-1 expressed on 293 cells; test: FACS on 293 cells transfected with a mouse Glypican-1 expression vector against an empty vector

binding	Binder
binds	B1
binds	B2

target: T3, human Glypican-1 forcibly expressed on CT01 chicken T-lymphoblast-like cells (CT01-GPC-1#42) (human); test: FACS: clone as primary antibody, FITC-labeled goat anti-mouse IgG as secondary; CT01 cells forcibly expressing human Glypican-1 (CT01-GPC-1#42), Glypican-1-negative CT01 cells as negative cells

binding	Binder
binds	B3
binds	B4
binds	B1
binds	B5
binds	B6
binds	B7
binds	B9
binds	B10
